Reference: patent US20230212258A1 (MCMASTER UNIVERSITY, published 2023)
No constants are given. Whether binding was seen depends on the method and setting. Some results given as binding are weak or reduced against the parent protein; the word gives no strength.

Chains of the proteins cited; added tags and fusions are not shown. Lines headed by an entry give the natural chain unless they say otherwise; changes in a name come on top.
UniProt P01732: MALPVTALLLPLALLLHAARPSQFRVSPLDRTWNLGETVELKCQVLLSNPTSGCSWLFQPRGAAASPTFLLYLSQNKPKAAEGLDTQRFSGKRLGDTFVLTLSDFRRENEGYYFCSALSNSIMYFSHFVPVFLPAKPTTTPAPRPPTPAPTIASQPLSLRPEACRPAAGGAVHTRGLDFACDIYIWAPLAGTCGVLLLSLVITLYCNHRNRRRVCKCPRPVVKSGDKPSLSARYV

Columns and labels:
[1] = target: T1, Her2Fc (UniProt P04626 23-652, limits assumed); assay: flow cytometry, engineered T cells probed with FcHer2 (FIG. 9A)
T1 construct: It is printed both as Her2Fc and as FcHer2; also called FcHer2; FcHer2 antigen; not shown: Fc part

[2] = target: T1, Her2Fc; assay: flow cytometry, transduced T cells incubated with Her2Fc (FIG. 2)
Protocol: T-cells had been incubated with Her2Fc, which later was detected via flow cytometry. The presented data was gated on CD8+ lymphocytes. The shown gates were chosen based on the untransduced control.

Substance: DARPin CAR (from UniProt P01732 138-182; P10747 153-220; P20963 52-164) (receptor)
- binding [1]: binds
- binding [2]: binds
